Source: patent US20210179940A1, “WIDE TEMPERATURE RANGE AND HIGH PHOTOCHEMICAL STABILITY SMECTIC LIQUID CRYSTAL COMPOSITIONS WITH A MONOLAYER SMECTIC A PHASE (SMA1), METHOD OF OBTAINING THEREOF AND DEVICES UTILIZING THEREOF” (WOJSKOWA AKADEMIA TECHNICZNA, priority 2017, published 2021)

Legend:
[1] = dynamic scattering effect, threshold and saturation voltages of doped composition 18; details: prepared in fluorobenzene, RT; for Vs(sc) saturation voltage, scattering state / Vth(sc) threshold voltage, scattering state: f = 50 Hz
[2] = dynamic scattering effect, threshold and saturation voltages of doped composition 21; set-up: key to Quality: G: parameters of the dynamic state and the clear state - good; M: parameters of the dynamic state and the clear state - moderate; W: parameters of the dynamic state and the clear state - weak; details: composition 21, dopant 6.58 · 10^−3 mol/kg, RT
[3] = composition 18, dopant 6.58 · 10^−3 mol/kg, f = 0.8 kHz
[4] = composition 18, dopant 6.58 · 10^−3 mol/kg, f = 1 kHz
[5] = composition 18, dopant 6.58 · 10^−3 mol/kg, f = 3 kHz
[6] = composition 18, dopant 6.58 · 10^−3 mol/kg, f = 5 kHz
[7] = composition 18, dopant 6.58 · 10^−3 mol/kg
[8] = composition 18, dopant 2.19 · 10^−3 mol/kg, f = 0.8 kHz
[9] = composition 18, dopant 2.19 · 10^−3 mol/kg, f = 1 kHz
[10] = composition 18, dopant 2.19 · 10^−3 mol/kg, f = 3 kHz
[11] = composition 18, dopant 2.19 · 10^−3 mol/kg, f = 5 kHz
[12] = composition 18, dopant 2.19 · 10^−3 mol/kg
[13] = composition 18, dopant 8.78 · 10^−3 mol/kg, f = 0.8 kHz
[14] = composition 18, dopant 8.78 · 10^−3 mol/kg, f = 1 kHz
[15] = composition 18, dopant 8.78 · 10^−3 mol/kg, f = 3 kHz
[16] = composition 18, dopant 8.78 · 10^−3 mol/kg, f = 5 kHz
[17] = composition 18, dopant 8.78 · 10^−3 mol/kg

With C1COCCOCCOCCOCCOCCO1.[K+].[O-]c1ccc(F)c(F)c1 [IIIk, complex of 18-crown-6 ether with potassium 3,4-difluorophenolate] the “Vs(c) saturation voltage, clear state” value [1, 3] was 130 V, the “Vth(c) threshold voltage, clear state” value [1, 3] was 100 V and the “Vs(c) saturation voltage, clear state” value [1, 4] was 120 V. For the same compound, the “Vth(c) threshold voltage, clear state” value [1, 4] was 110 V, the “Vs(c) saturation voltage, clear state” value [1, 5] was 110 V and the “Vth(c) threshold voltage, clear state” value [1, 5] was 100 V. The “Vs(c) saturation voltage, clear state” value [1, 6] was 120 V, the “Vth(c) threshold voltage, clear state” value [1, 6] was 110 V and the “Vs(sc) saturation voltage, scattering state” value (“Vs(sc) saturation voltage” for short) [1, 7] was 200 V. For the same compound, the “Vth(sc) threshold voltage, scattering state” value (“Vth(sc) threshold voltage” below) [1, 7] was 120 V.

With “complex of 18-crown-6 ether with sodium dodecyl-1-sulphonate [V.e12]” the “Vth(c) threshold voltage, clear state” value [1, 3] was 70 V, the “Vs(sc) saturation voltage” value [1, 7] was 280 V and the “Vth(sc) threshold voltage” value [1, 7] was 260 V.

In the case of N#Cc1c(F)cc([O-])cc1F.[K+].c1ccc2c(c1)OCCOCCOc1ccccc1OCCOCCO2 [IVn, complex of dibenzo-18-crown-6 ether with potassium 3,5-difluoro-4-cyanophenolate], the “Vs(c) saturation voltage, clear state” value [1, 8] is reported as 140 V, the “Vth(c) threshold voltage, clear state” value [1, 8] is reported as 100 V and the “Vs(c) saturation voltage, clear state” value [1, 9] is reported as 140 V. For the same compound, the “Vth(c) threshold voltage, clear state” value [1, 9] was 100 V, the “Vs(c) saturation voltage, clear state” value [1, 10] was 120 V and the “Vth(c) threshold voltage, clear state” value [1, 10] was 90 V. For the same compound, the “Vs(c) saturation voltage, clear state” value [1, 11] was 110 V, the “Vth(c) threshold voltage, clear state” value [1, 11] was 90 V and the “Vs(sc) saturation voltage” value [1, 12] was 220 V. The “Vth(sc) threshold voltage” value [1, 12] was 200 V, the “Vs(c) saturation voltage, clear state” value [1, 13] was 140 V and the “Vth(c) threshold voltage, clear state” value [1, 13] was 100 V. The “Vth(c) threshold voltage, clear state” value [1, 14] was 130 V, the “Vth(c) threshold voltage, clear state” value [1, 15] was 130 V and the “Vth(c) threshold voltage, clear state” value [1, 16] was 130 V. The “Vs(sc) saturation voltage” value [1, 17] was 240 V and the “Vth(sc) threshold voltage” value [1, 17] was 90 V.

With “1-hexadecyl-1,8-diazabicyclo[5.4.0]undec-7-enium 3,4-difluorophenolate [II.16k]” the “Vs(c) saturation voltage, clear state” value [1, 14] was 120 V, the “Vth(c) threshold voltage, clear state” value [1, 14] was 90 V and the “Vs(c) saturation voltage, clear state” value [1, 15] was 120 V. The “Vth(c) threshold voltage, clear state” value [1, 15] was 90 V, the “Vs(c) saturation voltage, clear state” value [1, 16] was 130 V and the “Vth(c) threshold voltage, clear state” value [1, 16] was 90 V. The “Vs(sc) saturation voltage” value [1, 17] was 220 V and the “Vth(sc) threshold voltage” value [1, 17] was 120 V.

In the case of “1-hexadecyl-1,8-diazabicyclo[5,4,0]undec-7-enium 3,5-difluoro-4-cyanophenolate [II.16n]”, the “Vs(sc) saturation voltage” value [1, 17] is reported as 270 V and the “Vth(sc) threshold voltage” value [1, 17] is reported as 220 V.

For “1-hexadecyl-1,8-diazabicyclo[5.4.0]undec-7-enium 4-dodecylbenzenesulphonate [II.16g12]”, the “Vs(c) saturation voltage, clear state” value [1, 13] was 150 V, the “Vth(c) threshold voltage, clear state” value [1, 13] was 140 V and the “Vs(c) saturation voltage, clear state” value [1, 14] was 150 V. For the same compound, the “Vth(c) threshold voltage, clear state” value [1, 14] was 140 V, the “Vs(c) saturation voltage, clear state” value [1, 15] was 150 V and the “Vth(c) threshold voltage, clear state” value [1, 15] was 140 V. For the same compound, the “Vth(c) threshold voltage, clear state” value [1, 16] was 150 V, the “Vs(sc) saturation voltage” value [1, 17] was 190 V and the “Vth(sc) threshold voltage” value [1, 17] was 100 V. The Quality [2] was “G”, the “Vs(c) saturation voltage, clear state” value ([2]; f = 0.8 kHz) was 70 V and the “Vth(c) threshold voltage, clear state” value ([2]; f = 0.8 kHz) was 70 V. The “Vs(c) saturation voltage, clear state” value ([2]; f = 1 kHz) was 70 V, the “Vth(c) threshold voltage, clear state” value ([2]; f = 1 kHz) was 70 V and the “Vs(c) saturation voltage, clear state” value ([2]; f = 3 kHz) was 70 V. For the same compound, the “Vth(c) threshold voltage, clear state” value ([2]; f = 3 kHz) was 70 V, the “Vs(c) saturation voltage, clear state” value ([2]; f = 5 kHz) was 70 V and the “Vth(c) threshold voltage, clear state” value ([2]; f = 5 kHz) was 70 V. For the same compound, the “Vs(c) saturation voltage, clear state” value ([2]; f = 7 kHz) was 80 V, the “Vth(c) threshold voltage, clear state” value ([2]; f = 7 kHz) was 70 V and the “Vs(sc) saturation voltage” value ([2]; f = 50 Hz) was 130 V. The “Vth(sc) threshold voltage” value ([2]; f = 50 Hz) was 120 V.

For “complex of 18-crown-6 ether with potassium bromide [IIIb]”, the “Vs(c) saturation voltage, clear state” value [1, 3] was 100 V, the “Vth(c) threshold voltage, clear state” value [1, 3] was 80 V and the “Vs(sc) saturation voltage” value [1, 7] was 270 V. For the same compound, the “Vth(sc) threshold voltage” value [1, 7] was 120 V.

In the case of “complex of dibenzo-18-crown-6 ether with potassium chlorate (VII) [IVc]”, the “Vth(c) threshold voltage, clear state” value [1, 13] is reported as 130 V, the “Vth(c) threshold voltage, clear state” value [1, 14] is reported as 130 V and the “Vth(sc) threshold voltage” value [1, 17] is reported as 100 V.

With CCCCCCCCCCCCCCCC[N+](C)(C)C.[Br-] [I.16b, hexadecyltrimethylammonium bromide, reference compound] the “dynamic scattering (observation)” value [1, 17] was “not observed up to voltage 400V; also recorded: no dynamic scattering”.

With CCCCCCCCc1ccc([O-])cc1.[K+].c1ccc2c(c1)OCCOCCOc1ccccc1OCCOCCO2 [IVh8, complex of dibenzo-18-crown-6 ether with potassium 4-octylphenolate] the “Vth(sc) threshold voltage” value [1, 17] was 130 V.

With “tetramethylammonium dodecylbenzenesulphonate [I.1g12, reference compound]” the “dynamic scattering (observation)” value [1, 17] was “not observed up to voltage 400V; also recorded: no dynamic scattering”.

For [K+].[O-]c1ccc(F)c(F)c1.c1ccc2c(c1)OCCOCCOc1ccccc1OCCOCCO2 [IVk, complex of dibenzo-18-crown-6 ether with potassium 3,4-difluorophenolate], the “Vs(c) saturation voltage, clear state” value [1, 13] was 150 V, the “Vth(c) threshold voltage, clear state” value [1, 13] was 100 V and the “Vs(c) saturation voltage, clear state” value [1, 14] was 150 V. For the same compound, the “Vth(c) threshold voltage, clear state” value [1, 14] was 100 V, the “Vs(c) saturation voltage, clear state” value [1, 15] was 140 V and the “Vth(c) threshold voltage, clear state” value [1, 15] was 100 V. The “Vth(c) threshold voltage, clear state” value [1, 16] was 140 V, the “Vs(sc) saturation voltage” value [1, 17] was 230 V and the “Vth(sc) threshold voltage” value [1, 17] was 110 V.

In the case of “complex of dibenzo-18-crown-6 ether with potassium bromide [IVb]”, the “Vs(c) saturation voltage, clear state” value [1, 3] is reported as 150 V, the “Vth(c) threshold voltage, clear state” value [1, 3] is reported as 150 V and the “Vs(sc) saturation voltage” value [1, 7] is reported as 330 V. For the same compound, the “Vth(sc) threshold voltage” value [1, 7] was 120 V.

With CC[N+]12CCCCCC1=NCCC2.[Br-] (centres unmarked) [II.2b, 1-ethyl-1,8-diazabicyclo[5.4.0] undec-7-enium bromide] the “Vs(c) saturation voltage, clear state” value [1, 3] was 120 V, the “Vth(c) threshold voltage, clear state” value [1, 3] was 120 V and the “Vth(sc) threshold voltage” value [1, 7] was 300 V.

With CCCCCCCCCCCCCCCC[N+]1=C2CCCCCN2CCC1 [II.16c, 1-Hexadecyl-1,8-diazabicyclo[5.4.0]undec-7-enium chlorate (VII)] the “Vth(c) threshold voltage, clear state” value [1, 14] was 120 V, the “Vs(sc) saturation voltage” value [1, 17] was 250 V and the “Vth(sc) threshold voltage” value [1, 17] was 190 V.

For CCCCCCCCCCCCc1ccc(S(=O)(=O)[O-])cc1.[K+].c1ccc2c(c1)OCCOCCOc1ccccc1OCCOCCO2 [IVg12, Complex of dibenzo-18-crown-6 ether with potassium 4-dodecylbenzenesulphonate], the “Vs(c) saturation voltage, clear state” value [1, 13] was 100 V, the “Vth(c) threshold voltage, clear state” value [1, 13] was 90 V and the “Vs(c) saturation voltage, clear state” value [1, 14] was 90 V. For the same compound, the “Vth(c) threshold voltage, clear state” value [1, 14] was 90 V, the “Vs(c) saturation voltage, clear state” value [1, 15] was 100 V and the “Vth(c) threshold voltage, clear state” value [1, 15] was 80 V. For the same compound, the “Vs(c) saturation voltage, clear state” value [1, 16] was 90 V, the “Vth(c) threshold voltage, clear state” value [1, 16] was 90 V and the “Vs(sc) saturation voltage” value [1, 17] was 320 V. The “Vth(sc) threshold voltage” value [1, 17] was 190 V.

“Also recorded” adds a separate entry of the source.
